The experiment deals with T1, DEP domain containing 1A (DEPDC1A) (UniProt Q5TB30).
T1 sequence: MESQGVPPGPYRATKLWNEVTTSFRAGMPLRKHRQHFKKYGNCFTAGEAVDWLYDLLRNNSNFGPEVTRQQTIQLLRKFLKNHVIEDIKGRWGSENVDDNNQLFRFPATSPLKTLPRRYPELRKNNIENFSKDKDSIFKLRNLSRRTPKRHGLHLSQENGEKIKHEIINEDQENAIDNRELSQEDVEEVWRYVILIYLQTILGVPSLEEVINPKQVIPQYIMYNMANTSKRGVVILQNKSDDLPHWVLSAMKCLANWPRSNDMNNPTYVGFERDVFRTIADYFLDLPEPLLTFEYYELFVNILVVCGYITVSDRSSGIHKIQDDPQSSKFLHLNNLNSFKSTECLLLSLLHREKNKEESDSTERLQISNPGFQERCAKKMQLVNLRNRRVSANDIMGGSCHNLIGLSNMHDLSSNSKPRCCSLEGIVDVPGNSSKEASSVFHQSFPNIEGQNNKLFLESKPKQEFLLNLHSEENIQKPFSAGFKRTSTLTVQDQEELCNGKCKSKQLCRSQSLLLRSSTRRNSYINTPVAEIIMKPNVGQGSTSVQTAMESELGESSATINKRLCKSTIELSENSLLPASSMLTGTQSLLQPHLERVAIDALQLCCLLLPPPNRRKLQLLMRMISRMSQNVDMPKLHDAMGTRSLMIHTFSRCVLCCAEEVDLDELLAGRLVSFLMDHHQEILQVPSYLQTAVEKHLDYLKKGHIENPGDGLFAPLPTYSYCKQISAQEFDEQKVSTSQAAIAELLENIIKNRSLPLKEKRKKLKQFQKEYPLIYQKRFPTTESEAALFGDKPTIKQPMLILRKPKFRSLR
Description: co-IP; co-immunoprecipitation; cells, bait, antibodies and buffer not told.

Amino acid sequences for entries named in this document (tags omitted).
UniProt Q86TB3: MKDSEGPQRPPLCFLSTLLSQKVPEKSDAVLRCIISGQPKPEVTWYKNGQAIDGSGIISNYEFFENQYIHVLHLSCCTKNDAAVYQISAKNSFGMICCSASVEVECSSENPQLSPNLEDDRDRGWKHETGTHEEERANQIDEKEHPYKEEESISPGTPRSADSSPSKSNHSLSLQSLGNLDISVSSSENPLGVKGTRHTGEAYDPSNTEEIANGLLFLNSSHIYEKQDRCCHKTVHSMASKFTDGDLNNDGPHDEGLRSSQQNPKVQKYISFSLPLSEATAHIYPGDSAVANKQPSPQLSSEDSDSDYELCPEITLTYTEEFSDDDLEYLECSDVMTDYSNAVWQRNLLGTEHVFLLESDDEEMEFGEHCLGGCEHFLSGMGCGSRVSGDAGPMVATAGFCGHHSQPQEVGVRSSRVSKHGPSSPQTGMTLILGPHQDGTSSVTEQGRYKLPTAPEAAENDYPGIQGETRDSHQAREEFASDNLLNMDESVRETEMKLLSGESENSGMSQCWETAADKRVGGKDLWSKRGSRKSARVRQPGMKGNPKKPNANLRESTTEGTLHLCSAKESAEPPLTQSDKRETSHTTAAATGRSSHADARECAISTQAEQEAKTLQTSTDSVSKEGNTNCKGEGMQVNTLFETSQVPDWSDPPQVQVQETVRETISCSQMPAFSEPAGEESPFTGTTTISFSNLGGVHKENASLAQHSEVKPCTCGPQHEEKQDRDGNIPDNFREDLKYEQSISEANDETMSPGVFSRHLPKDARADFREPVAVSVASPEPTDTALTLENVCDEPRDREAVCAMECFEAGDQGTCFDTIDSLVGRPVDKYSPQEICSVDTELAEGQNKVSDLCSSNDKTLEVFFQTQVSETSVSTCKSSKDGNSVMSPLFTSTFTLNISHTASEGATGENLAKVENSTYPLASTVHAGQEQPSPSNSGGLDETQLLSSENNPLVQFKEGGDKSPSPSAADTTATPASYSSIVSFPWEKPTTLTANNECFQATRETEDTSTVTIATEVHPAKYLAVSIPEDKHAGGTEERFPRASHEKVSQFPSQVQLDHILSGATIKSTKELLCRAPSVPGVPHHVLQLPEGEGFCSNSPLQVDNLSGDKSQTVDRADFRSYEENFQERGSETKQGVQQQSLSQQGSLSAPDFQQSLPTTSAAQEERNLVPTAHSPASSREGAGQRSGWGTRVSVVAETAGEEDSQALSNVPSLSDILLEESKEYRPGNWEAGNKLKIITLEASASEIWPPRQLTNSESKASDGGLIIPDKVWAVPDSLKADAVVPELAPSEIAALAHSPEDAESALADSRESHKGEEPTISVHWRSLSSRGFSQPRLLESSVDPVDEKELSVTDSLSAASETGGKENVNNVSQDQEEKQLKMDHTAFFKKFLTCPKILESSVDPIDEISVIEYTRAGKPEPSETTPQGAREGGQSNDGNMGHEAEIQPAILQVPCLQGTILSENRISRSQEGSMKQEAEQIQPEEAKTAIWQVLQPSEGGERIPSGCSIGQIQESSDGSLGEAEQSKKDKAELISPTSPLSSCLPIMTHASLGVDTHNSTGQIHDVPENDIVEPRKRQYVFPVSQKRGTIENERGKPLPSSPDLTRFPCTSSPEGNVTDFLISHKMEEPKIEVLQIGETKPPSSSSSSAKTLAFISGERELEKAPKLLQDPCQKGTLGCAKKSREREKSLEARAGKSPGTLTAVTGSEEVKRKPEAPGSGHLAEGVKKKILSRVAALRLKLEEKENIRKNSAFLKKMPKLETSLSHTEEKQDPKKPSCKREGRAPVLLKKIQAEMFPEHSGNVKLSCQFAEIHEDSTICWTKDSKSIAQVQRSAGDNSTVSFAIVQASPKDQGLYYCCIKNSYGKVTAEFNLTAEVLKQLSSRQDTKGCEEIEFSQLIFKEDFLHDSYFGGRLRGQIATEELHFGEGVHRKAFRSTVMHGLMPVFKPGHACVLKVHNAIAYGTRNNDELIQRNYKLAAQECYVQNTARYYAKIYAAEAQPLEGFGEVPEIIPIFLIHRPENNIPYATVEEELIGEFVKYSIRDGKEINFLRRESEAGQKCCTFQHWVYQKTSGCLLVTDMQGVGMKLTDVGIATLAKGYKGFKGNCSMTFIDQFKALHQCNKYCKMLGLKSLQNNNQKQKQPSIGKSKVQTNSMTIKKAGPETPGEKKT

From article PMC8249393 come the findings set out here.

No constants are given. Whether binding was seen depends on the method and setting. In cells and extracts the contact can be indirect. Some results given as binding are weak or reduced against the parent protein; the word gives no strength.

Turning to “Alpha protein kinase 2 (ALPK2) (from UniProt Q86TB3 1-2170)”, the binding entry is reported as “binds”.
